Experimental data published in PMC7819943, “Rice protein-binding microarrays: a tool to detect cis-acting elements near promoter regions in rice”.
This is one part of the list.

Protein sequences, listed by entry. Tags and fused reporters are not part of them.
UniProt Q0JBA9, entry or part of it: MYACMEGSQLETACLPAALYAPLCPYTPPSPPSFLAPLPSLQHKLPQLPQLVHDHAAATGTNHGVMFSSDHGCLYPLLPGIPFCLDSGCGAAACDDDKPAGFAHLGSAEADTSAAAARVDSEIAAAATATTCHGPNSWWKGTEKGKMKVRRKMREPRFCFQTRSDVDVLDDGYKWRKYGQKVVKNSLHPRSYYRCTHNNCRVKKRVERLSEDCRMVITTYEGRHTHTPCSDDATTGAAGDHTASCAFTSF

biological target: OsWRKY34 (Oryza sativa, UniProt Q0JBA9 1-250); assay: protein-binding microarray (RPBM); PBS, 2% BSA, 51.3 ng/ul salmon testes DNA, 50 uM zinc acetate, 200 nM TF, 25 C, 1 h; high values mean tight binding; conditions: protein: recombinant; tags: N-terminal polyhistidine and DsRed monomer fusion (pET32a); label: CyDye5-dUTP incorporated in the synthesized complementary strand; 3' TTTTT single-stranded linker to array surface; dsDNA, one strand shown
How it was run: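 The binding signal is fluorescence intensity per array feature (arbitrary units). Readings came from an Axon 4000B scanner after a washed, 2% BSA-blocked, double-stranded custom Agilent array had been incubated for 1 h at 25 °C with 200 nM protein and 50 µM zinc acetate. The protein was a Ni–NTA-purified transcription factor fused N-terminally to polyhistidine and DsRed, expressed in E. coli BL21-CodonPlus.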

Sequence	binding signal
ACTATGTTGCTTTGTTTTCTTGATTCAACTCCGTACATTCCGGAGTCACCTAGTGCAG	9040 fluorescence intensity (a.u.)
ACTCAACTATTTCTATCATTGATCGACTCCATCTGATTCACGGAGTCACCTAGTGCAG	10300 fluorescence intensity (a.u.)
TGTTAAAAGTTCTTCCTTATTTGCTTACTCCTAGTCAATTCGGAGTCACCTAGTGCAG	8770 fluorescence intensity (a.u.)
CGTCATCCACGGTCTGACCACTCTATCACCGCCAGTCTGACGGAGTCACCTAGTGCAG	9130 fluorescence intensity (a.u.)
TCTACCTCTATGCCATGCATCCTTTGCTGCTAATTGTACACGGAGTCACCTAGTGCAG	9590 fluorescence intensity (a.u.)
AGGATTTAGTGGGGTATTATAATTTCATGGTAAGATAGGACGGAGTCACCTAGTGCAG	9910 fluorescence intensity (a.u.)
TTGTCATCTTTGGGTTACCAACTTGTTTTGATGTTGGATTCGGAGTCACCTAGTGCAG	9680 fluorescence intensity (a.u.)
AAGGTTGGCATGACAATTCTCACTACTTGGACTAACAGTTCGGAGTCACCTAGTGCAG	8310 fluorescence intensity (a.u.)
TGCATTTTTTGTCAACTATGGGTCGTGTTCAATATTTTCTCGGAGTCACCTAGTGCAG	9490 fluorescence intensity (a.u.)
TGCTGTGAGACACCCGAAGATCGTATATTTGCTCGTGGACCGGAGTCACCTAGTGCAG	8110 fluorescence intensity (a.u.)
CGTTTTTTTGTGCGCAATTCCTCTTTTAAGTGGCTTTCATCGGAGTCACCTAGTGCAG	8540 fluorescence intensity (a.u.)
AAGTCGGTTTTATTTTTTTTCTATTCAAATTTTATTTAAGCGGAGTCACCTAGTGCAG	9250 fluorescence intensity (a.u.)
TCATCAGCAAGACCAGCAACCACTCGAGACTGTTTATCTCCGGAGTCACCTAGTGCAG	10300 fluorescence intensity (a.u.)
CGAACATGGCCGATCGAATATGCGTCGTCTGTACCCGTACCGGAGTCACCTAGTGCAG	9320 fluorescence intensity (a.u.)
ACCTGTCAGCGTGGCCCGTCTAGTTTTGTCCCAGTCCCAGCGGAGTCACCTAGTGCAG	9450 fluorescence intensity (a.u.)
CCTCCTGCCCGCCGCCGCCGCTTTGGTCCTCGCCCGCATGCGGAGTCACCTAGTGCAG	13300 fluorescence intensity (a.u.)
AATAGTCTGCTATTGTACCTGCTCTGAACTGTTGCCCATTCGGAGTCACCTAGTGCAG	8120 fluorescence intensity (a.u.)
GTTTATTTTTCAGCCTTTGCTTTTAGATCACTAACAAGTTCGGAGTCACCTAGTGCAG	9920 fluorescence intensity (a.u.)
TTGTTCTCTTTTTTTTTGCGTGCGTTGACTTTATCTTCAACGGAGTCACCTAGTGCAG	19900 fluorescence intensity (a.u.)
CACTATATATATCATTCTCATTTGTATGTTTACGTAGTATCGGAGTCACCTAGTGCAG	9790 fluorescence intensity (a.u.)
TTAACCTTTACTATAATGACATTGGACCCATATTTCGTAGCGGAGTCACCTAGTGCAG	9270 fluorescence intensity (a.u.)

Some of the entries above, reformatted.

| Sequence | binding signal |
| --- | --- |
| TCTACCTCTATGCCATGCATCCTTTGCTGCTAATTGTACACGGAGTCACCTAGTGCAG | 9590 fluorescence intensity (a.u.) |
| AGGATTTAGTGGGGTATTATAATTTCATGGTAAGATAGGACGGAGTCACCTAGTGCAG | 9910 fluorescence intensity (a.u.) |
| TGCATTTTTTGTCAACTATGGGTCGTGTTCAATATTTTCTCGGAGTCACCTAGTGCAG | 9490 fluorescence intensity (a.u.) |
| CCTCCTGCCCGCCGCCGCCGCTTTGGTCCTCGCCCGCATGCGGAGTCACCTAGTGCAG | 13300 fluorescence intensity (a.u.) |

Remaining list, next part:

Sequence	binding signal
ACCGTTGACTTTTTAGCACATGTTTGACCGCTCGTCTTATCGGAGTCACCTAGTGCAG	54800 fluorescence intensity (a.u.)
CAAAATACTGCCCACACACGCATACCCCAAATTCCACCCCCGGAGTCACCTAGTGCAG	8240 fluorescence intensity (a.u.)
CGTCTGGCCCGAAAACCACTCTATTAATTCCATTTGCATCCGGAGTCACCTAGTGCAG	8080 fluorescence intensity (a.u.)
TAAACCGCCAACATGCCCATGGTTTTGGACCTTTTTTTGTCGGAGTCACCTAGTGCAG	8060 fluorescence intensity (a.u.)
CCCCAACACTGTCCTTGCAACTTTATCGGTTAGAATGCTACGGAGTCACCTAGTGCAG	8320 fluorescence intensity (a.u.)
GTACGCGCACACACACATGAGACATATATACACCGATCTGCGGAGTCACCTAGTGCAG	8580 fluorescence intensity (a.u.)
GTCTTCCTCGGTGTCTCCGCCCCGCCGTCTCCGATCTCCCCGGAGTCACCTAGTGCAG	9950 fluorescence intensity (a.u.)
TTACATCCTTCATTTCTTTGGACCGTGCCTTGGAATAAGTCGGAGTCACCTAGTGCAG	9620 fluorescence intensity (a.u.)
GCACATTAACGCACGCCACCCACCGCCACCTACTCGCCACCGGAGTCACCTAGTGCAG	9060 fluorescence intensity (a.u.)
TATCACCTCGTTTTCTTTCCATTGTGCTACCAACTGTGCTCGGAGTCACCTAGTGCAG	8260 fluorescence intensity (a.u.)
TTCCTTCAAGTCACTTTGTTTTCATATCATGAACCTTCCACGGAGTCACCTAGTGCAG	8050 fluorescence intensity (a.u.)
TCATGCCTTGATTTTTCTCTGTTTTGAACTGCAATTGCAGCGGAGTCACCTAGTGCAG	8910 fluorescence intensity (a.u.)
ATGAGGAATGAAGTACTCTCCACCATTTTCTTGCTCCTCACGGAGTCACCTAGTGCAG	8420 fluorescence intensity (a.u.)
AGTCAACGTTTCTATTAGAAAATTTTCCCTTTGCCCTTAACGGAGTCACCTAGTGCAG	9670 fluorescence intensity (a.u.)
CTGTTATTATTAAATCATCAAATTCTTTCTTGCACCAGTTCGGAGTCACCTAGTGCAG	8260 fluorescence intensity (a.u.)
TTATTCCACTCTCCAAAACGTCATTACTGATTTGCTTTTCCGGAGTCACCTAGTGCAG	8100 fluorescence intensity (a.u.)
CTTCCATCCACGATCCAATATGACAATATGACATCCAACACGGAGTCACCTAGTGCAG	9210 fluorescence intensity (a.u.)
ACAAGTGAATATAACACTAACCTCGTATGTCATGTTGTCTCGGAGTCACCTAGTGCAG	8980 fluorescence intensity (a.u.)
ACCACCGCCGCGGCGGCGTCGCCCACGCCGTGCCGCCCCGCGGAGTCACCTAGTGCAG	8160 fluorescence intensity (a.u.)
CCACCCCACGCGCCGCGCGGTCTCGCTTCGCCTCCGCGCGCGGAGTCACCTAGTGCAG	10500 fluorescence intensity (a.u.)
GTAGCCCACACGTGTTATCGTTGCCAAGCTTGCCACCCAACGGAGTCACCTAGTGCAG	11900 fluorescence intensity (a.u.)

Quoted from the listing.
Value for GTACGCGCACACACACATGAGACATATATACACCGATCTGCGGAGTCACCTAGTGCAG under binding signal: 8580 fluorescence intensity (a.u.)
Value for CCCCAACACTGTCCTTGCAACTTTATCGGTTAGAATGCTACGGAGTCACCTAGTGCAG under binding signal: 8320 fluorescence intensity (a.u.)

(continued)

Sequence	binding signal
AAGTTGGAAGTTTGTGTGTGTAGGAAAGTTTGATGTGATACGGAGTCACCTAGTGCAG	9600 fluorescence intensity (a.u.)
CGGGGAGTCGTTGCTGTTCTTGTTCTTGGTCGAGGTTGAGCGGAGTCACCTAGTGCAG	14500 fluorescence intensity (a.u.)
CCACCAGCGCCACCGCTTCTTCTTCTTTCGATTCTTCTTCCGGAGTCACCTAGTGCAG	9450 fluorescence intensity (a.u.)
CTTGATGTGGTTGGAACTTGGAAGGCAGATTTGCTTGAACCGGAGTCACCTAGTGCAG	9280 fluorescence intensity (a.u.)
GCCGTCCCCAGCCGCGACCACCGTCGCCGTCCGCACCGTCCGGAGTCACCTAGTGCAG	8320 fluorescence intensity (a.u.)
CTGTCCTCTTTTGTCGATCCTGTTCAGTTGCTTGTCGCAACGGAGTCACCTAGTGCAG	8390 fluorescence intensity (a.u.)
GTTTACATGTGTAGATCTAATGATGCGTTCAATCTAGTTTCGGAGTCACCTAGTGCAG	8860 fluorescence intensity (a.u.)
GGGATTGGATTGGGTTGGGTTGGATTGGAGAGAGAGAATGCGGAGTCACCTAGTGCAG	31400 fluorescence intensity (a.u.)
ACAGCTCCAAATTTTGCCTCCGTTGTCCTTTTTTTCTCTCCGGAGTCACCTAGTGCAG	9340 fluorescence intensity (a.u.)
TGCTAGGACACTCTCCCCATCCTTGGAATCTGTTGCATTCCGGAGTCACCTAGTGCAG	8900 fluorescence intensity (a.u.)
CTCTAATACATTGTCTCGTTTTTCTCTATAGACTATCTCCCGGAGTCACCTAGTGCAG	11900 fluorescence intensity (a.u.)
ATTTCCAAGCTCTCTTTGCAGTTACTCCTCGGTGTGCTCCCGGAGTCACCTAGTGCAG	8250 fluorescence intensity (a.u.)
AGTAGTACTAGGAGTGGTGCTCACTTGCACACTATTTCACCGGAGTCACCTAGTGCAG	8050 fluorescence intensity (a.u.)
ATTACACCCTAGCATGTACATATTCTTCTATAATGTGTTACGGAGTCACCTAGTGCAG	11100 fluorescence intensity (a.u.)
TGCTATCACTCTCTCACCACCGCTAGAGATCACCATTGTGCGGAGTCACCTAGTGCAG	9110 fluorescence intensity (a.u.)
ACACATCATCCACGTACTGAGGCCACACACTGATCTATTACGGAGTCACCTAGTGCAG	11400 fluorescence intensity (a.u.)
CGAGCTGGCGCACTGGTCCACACTATTCTCCACCCGCTTCCGGAGTCACCTAGTGCAG	8960 fluorescence intensity (a.u.)
ACTAAGTGCGTGATTGTTTCAGATTTGTTTGGGTTGCGGTCGGAGTCACCTAGTGCAG	9410 fluorescence intensity (a.u.)
CACTCCGTCACGGCCGCCACCGCGACCACTTTTTCCCGTCCGGAGTCACCTAGTGCAG	9430 fluorescence intensity (a.u.)
CCACTCACTCTGTGTTTCACTTGCTGCCTTTCAGTTGCAACGGAGTCACCTAGTGCAG	8820 fluorescence intensity (a.u.)
ACTAACTTAAATATAACCATCACTTGCTAATACTTTATCCCGGAGTCACCTAGTGCAG	9100 fluorescence intensity (a.u.)

Sequence	binding signal
CCTATAAATACCTTGTTGCCATCCGTTTCCAGTTCATCATCGGAGTCACCTAGTGCAG	10400 fluorescence intensity (a.u.)
TCAGTATTTCCAAATATGAGTTTTCTTGATGTTTCTAGCACGGAGTCACCTAGTGCAG	8040 fluorescence intensity (a.u.)
CTGTAGTCCGTTGCTTTTCTCTTTTCCTTTATCTCTTTAACGGAGTCACCTAGTGCAG	9590 fluorescence intensity (a.u.)
AATACAGGTGAGTTGTTGCTTCCTTACCATCATTTTCTAACGGAGTCACCTAGTGCAG	11900 fluorescence intensity (a.u.)
GCCATTCTTGGTTGGATTAGGGTTAGGGTTCGTCGGGATGCGGAGTCACCTAGTGCAG	9040 fluorescence intensity (a.u.)
TTTTTTGTTTTTTCTTTGAATTCTTTCCTTACGATTTTTGCGGAGTCACCTAGTGCAG	13400 fluorescence intensity (a.u.)
AATGTACGGCTATACTCTACTCACTTCATCGGTAAATACACGGAGTCACCTAGTGCAG	10700 fluorescence intensity (a.u.)
ATGTTTTATTTCCATCTCTCCAGATGTTGCTAAATTAGTCCGGAGTCACCTAGTGCAG	9590 fluorescence intensity (a.u.)
AGGGAGGGAGGGCCATCGATCATGAGGAGGGTGTTATACACGGAGTCACCTAGTGCAG	9930 fluorescence intensity (a.u.)
TCCCGTGCGCCGCCGCCTCGTCGTTCCATCTAAGTCGCGACGGAGTCACCTAGTGCAG	9280 fluorescence intensity (a.u.)
GTTTCTTGCTTTCTTGGCCATGGTTTATGAATGGATTCTGCGGAGTCACCTAGTGCAG	8500 fluorescence intensity (a.u.)
GCCCCACTGTCGGCCACCCCACTCCCCGCCGTCCTCCTCCCGGAGTCACCTAGTGCAG	8820 fluorescence intensity (a.u.)
CTTCGCTTTCGTCACGTTCTTGATTTGGGCGGGCGCGGAGCGGAGTCACCTAGTGCAG	8980 fluorescence intensity (a.u.)
CGAGGCCATTCTATCGCGCAAATCTTTTACACCTCGCTGTCGGAGTCACCTAGTGCAG	10400 fluorescence intensity (a.u.)
GCAACTTTTTATTTTTTATATTTGCAAAAGTTTTTTAAATCGGAGTCACCTAGTGCAG	8390 fluorescence intensity (a.u.)
TTCTGCCTGTCTTTAGGTTCAATGATGATCCCTTGTCAAACGGAGTCACCTAGTGCAG	13700 fluorescence intensity (a.u.)
ATACAATATTTTGGGGTGGTTACAATTTACACAGTATTCTCGGAGTCACCTAGTGCAG	11500 fluorescence intensity (a.u.)
TGATTTTCTTTTTATTCCATGTTCTACTTTTTAATTTTTTCGGAGTCACCTAGTGCAG	10000 fluorescence intensity (a.u.)
GCCACCATTAATTGCGAGCTGCTTCTTCTTCCCGTTCTTGCGGAGTCACCTAGTGCAG	10100 fluorescence intensity (a.u.)
CAACACCCAAATCCCATCGTTCTTGTATTCTCCACTAGTCCGGAGTCACCTAGTGCAG	9410 fluorescence intensity (a.u.)
AATCAGGCAGGCACCTTTTTCGCGTTGCACCACCGCGCCACGGAGTCACCTAGTGCAG	10500 fluorescence intensity (a.u.)
